Results reported in the supplement of paper PMC10849652.
The list shows a part of the results.

Sequences of proteins named here, by UniProt entry; tags and fusion partners are left off. A change or cut given only in a name is not applied to a line headed by its entry.
UniProt Q9H790: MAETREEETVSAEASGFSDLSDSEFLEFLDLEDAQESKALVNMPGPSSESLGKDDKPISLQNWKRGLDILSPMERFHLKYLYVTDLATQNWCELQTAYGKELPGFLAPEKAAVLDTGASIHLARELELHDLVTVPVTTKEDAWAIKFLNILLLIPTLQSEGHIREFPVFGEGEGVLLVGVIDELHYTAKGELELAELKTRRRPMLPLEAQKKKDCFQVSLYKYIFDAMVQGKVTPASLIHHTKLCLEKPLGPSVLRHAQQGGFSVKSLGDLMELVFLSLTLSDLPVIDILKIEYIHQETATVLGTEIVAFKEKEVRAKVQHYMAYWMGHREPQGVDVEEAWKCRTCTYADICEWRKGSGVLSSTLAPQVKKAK
UniProt P00488: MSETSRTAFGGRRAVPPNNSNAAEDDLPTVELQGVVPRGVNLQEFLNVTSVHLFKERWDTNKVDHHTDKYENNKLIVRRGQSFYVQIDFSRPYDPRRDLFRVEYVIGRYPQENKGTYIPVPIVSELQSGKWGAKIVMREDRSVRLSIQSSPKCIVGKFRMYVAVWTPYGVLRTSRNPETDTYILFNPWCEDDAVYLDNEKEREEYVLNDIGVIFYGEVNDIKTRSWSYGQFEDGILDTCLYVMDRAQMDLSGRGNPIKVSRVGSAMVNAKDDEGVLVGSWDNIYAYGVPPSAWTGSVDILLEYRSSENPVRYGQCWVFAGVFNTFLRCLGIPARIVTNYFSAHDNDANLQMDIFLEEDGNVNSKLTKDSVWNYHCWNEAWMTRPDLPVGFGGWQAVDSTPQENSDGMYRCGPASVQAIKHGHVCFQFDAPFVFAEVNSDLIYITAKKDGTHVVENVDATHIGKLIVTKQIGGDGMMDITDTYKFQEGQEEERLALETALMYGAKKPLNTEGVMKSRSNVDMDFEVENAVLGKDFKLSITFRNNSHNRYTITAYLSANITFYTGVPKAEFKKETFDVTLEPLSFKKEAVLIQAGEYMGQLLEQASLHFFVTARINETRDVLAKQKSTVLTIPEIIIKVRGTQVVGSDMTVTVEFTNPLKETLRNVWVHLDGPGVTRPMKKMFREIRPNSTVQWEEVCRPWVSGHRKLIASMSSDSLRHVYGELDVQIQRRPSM
UniProt Q5T8I3: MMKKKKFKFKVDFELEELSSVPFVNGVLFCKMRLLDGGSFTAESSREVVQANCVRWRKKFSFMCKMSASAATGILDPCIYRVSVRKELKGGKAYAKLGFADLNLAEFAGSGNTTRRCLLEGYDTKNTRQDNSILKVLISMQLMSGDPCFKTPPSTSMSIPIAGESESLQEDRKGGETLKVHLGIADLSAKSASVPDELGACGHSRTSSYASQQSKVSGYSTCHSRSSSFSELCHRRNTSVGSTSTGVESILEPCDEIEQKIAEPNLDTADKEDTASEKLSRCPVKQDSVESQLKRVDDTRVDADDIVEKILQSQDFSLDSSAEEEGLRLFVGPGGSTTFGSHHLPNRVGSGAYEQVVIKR
UniProt Q8TE68: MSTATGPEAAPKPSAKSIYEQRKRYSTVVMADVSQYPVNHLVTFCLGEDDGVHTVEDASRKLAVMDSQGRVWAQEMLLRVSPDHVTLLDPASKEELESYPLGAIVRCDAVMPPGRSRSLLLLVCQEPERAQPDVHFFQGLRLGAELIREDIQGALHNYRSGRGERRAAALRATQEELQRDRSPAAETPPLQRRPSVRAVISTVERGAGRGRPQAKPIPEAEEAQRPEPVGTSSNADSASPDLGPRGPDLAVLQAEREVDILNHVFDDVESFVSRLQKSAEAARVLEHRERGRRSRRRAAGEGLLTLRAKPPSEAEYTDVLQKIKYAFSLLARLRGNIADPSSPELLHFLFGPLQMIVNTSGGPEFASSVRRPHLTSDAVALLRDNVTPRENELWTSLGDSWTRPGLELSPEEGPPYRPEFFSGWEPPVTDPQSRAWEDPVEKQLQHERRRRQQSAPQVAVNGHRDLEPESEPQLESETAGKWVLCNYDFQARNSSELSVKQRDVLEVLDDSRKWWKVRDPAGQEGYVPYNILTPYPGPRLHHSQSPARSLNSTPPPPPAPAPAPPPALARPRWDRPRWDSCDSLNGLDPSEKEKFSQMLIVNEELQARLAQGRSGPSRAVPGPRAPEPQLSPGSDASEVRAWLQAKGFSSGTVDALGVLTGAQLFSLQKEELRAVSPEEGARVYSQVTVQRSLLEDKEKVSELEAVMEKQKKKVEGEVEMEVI
UniProt Q99504: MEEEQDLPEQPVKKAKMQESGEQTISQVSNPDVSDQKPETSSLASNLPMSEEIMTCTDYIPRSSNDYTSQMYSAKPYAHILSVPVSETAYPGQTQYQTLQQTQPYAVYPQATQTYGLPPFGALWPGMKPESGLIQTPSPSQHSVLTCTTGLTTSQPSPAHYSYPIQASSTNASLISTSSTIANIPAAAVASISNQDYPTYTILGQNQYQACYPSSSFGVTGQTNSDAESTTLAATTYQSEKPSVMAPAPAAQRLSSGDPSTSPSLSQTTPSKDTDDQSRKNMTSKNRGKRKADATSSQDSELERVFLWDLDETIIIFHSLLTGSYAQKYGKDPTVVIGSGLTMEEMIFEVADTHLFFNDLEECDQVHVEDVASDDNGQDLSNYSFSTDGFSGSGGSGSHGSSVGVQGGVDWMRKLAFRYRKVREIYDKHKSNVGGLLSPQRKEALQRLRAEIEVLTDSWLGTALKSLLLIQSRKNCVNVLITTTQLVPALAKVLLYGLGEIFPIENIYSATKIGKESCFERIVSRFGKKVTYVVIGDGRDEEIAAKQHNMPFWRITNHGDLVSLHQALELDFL
UniProt Q9H501: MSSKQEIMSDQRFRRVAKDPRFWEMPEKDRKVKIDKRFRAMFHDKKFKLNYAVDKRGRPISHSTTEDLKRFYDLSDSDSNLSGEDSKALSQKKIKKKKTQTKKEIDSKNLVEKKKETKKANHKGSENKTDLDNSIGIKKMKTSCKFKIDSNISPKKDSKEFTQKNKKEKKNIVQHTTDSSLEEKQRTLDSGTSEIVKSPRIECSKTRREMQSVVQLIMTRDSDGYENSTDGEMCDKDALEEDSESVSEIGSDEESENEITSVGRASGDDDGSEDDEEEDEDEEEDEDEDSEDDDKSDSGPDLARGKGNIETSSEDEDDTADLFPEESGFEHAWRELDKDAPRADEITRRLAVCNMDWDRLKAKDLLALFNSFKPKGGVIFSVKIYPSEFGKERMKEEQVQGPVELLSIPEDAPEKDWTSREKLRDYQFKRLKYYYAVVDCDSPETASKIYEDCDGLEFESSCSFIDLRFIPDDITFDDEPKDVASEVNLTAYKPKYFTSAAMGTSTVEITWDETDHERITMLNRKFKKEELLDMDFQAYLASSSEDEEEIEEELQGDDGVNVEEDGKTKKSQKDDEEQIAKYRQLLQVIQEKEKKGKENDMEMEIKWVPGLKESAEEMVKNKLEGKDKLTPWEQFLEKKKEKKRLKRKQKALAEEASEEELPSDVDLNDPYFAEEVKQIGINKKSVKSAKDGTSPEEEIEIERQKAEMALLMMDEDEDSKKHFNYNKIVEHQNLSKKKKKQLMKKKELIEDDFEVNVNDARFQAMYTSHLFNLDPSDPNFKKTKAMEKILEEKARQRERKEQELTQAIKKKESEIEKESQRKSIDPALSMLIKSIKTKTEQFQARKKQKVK
UniProt Q86V87: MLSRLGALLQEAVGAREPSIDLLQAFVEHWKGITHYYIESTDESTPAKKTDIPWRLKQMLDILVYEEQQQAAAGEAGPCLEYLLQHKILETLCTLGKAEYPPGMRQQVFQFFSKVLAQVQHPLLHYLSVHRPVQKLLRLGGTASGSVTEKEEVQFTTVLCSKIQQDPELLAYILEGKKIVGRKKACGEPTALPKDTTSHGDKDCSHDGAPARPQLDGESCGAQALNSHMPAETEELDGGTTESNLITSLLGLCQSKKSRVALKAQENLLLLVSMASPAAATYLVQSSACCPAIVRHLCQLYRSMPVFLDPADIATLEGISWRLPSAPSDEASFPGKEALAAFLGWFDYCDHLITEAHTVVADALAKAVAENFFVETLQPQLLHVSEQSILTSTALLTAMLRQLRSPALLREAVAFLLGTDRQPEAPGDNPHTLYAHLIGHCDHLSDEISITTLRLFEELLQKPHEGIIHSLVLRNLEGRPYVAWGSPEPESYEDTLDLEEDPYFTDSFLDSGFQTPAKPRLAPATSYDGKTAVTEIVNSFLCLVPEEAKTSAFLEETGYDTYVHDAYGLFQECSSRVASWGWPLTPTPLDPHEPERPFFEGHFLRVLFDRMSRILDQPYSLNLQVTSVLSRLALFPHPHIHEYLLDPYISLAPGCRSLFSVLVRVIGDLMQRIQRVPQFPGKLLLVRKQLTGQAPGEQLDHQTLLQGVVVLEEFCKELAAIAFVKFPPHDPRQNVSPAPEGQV
UniProt Q9BQ89: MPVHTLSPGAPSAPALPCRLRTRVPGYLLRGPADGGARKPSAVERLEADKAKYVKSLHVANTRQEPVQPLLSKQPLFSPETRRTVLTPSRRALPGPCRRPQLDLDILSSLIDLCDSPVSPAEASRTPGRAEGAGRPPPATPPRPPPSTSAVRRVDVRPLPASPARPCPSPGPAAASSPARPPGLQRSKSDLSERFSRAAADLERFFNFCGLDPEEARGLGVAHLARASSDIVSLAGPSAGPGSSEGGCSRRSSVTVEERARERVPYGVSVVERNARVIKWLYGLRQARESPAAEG
UniProt P05413, whole entry, looked up: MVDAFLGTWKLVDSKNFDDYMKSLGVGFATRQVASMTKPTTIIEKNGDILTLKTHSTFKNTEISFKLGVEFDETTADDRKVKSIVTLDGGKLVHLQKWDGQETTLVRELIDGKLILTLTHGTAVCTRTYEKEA
UniProt Q6NZ36: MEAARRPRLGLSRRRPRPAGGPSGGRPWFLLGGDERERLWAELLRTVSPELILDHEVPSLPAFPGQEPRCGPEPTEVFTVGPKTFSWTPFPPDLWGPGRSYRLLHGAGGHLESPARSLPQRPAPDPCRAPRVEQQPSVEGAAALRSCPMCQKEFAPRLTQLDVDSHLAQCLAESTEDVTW
UniProt O60447: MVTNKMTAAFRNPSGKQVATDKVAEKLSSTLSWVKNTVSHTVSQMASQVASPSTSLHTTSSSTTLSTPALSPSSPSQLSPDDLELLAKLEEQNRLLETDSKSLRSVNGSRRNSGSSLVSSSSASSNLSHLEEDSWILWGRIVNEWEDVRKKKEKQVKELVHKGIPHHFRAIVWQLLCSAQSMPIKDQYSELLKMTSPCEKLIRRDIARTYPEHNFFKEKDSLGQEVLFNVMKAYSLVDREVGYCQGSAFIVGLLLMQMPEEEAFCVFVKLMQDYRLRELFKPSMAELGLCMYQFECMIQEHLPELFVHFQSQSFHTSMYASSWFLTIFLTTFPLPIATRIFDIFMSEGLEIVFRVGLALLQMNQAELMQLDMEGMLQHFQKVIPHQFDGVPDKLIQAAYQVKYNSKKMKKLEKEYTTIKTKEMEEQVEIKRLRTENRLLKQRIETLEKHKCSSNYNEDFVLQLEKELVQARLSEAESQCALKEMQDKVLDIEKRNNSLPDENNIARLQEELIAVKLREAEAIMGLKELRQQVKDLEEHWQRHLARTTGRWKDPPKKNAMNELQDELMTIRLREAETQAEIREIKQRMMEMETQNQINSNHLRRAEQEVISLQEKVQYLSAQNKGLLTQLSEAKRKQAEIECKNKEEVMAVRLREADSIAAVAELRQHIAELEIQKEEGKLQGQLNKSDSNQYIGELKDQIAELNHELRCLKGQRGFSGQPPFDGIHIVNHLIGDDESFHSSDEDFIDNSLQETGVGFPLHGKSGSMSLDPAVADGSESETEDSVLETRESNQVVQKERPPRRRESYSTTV
UniProt Q9H098: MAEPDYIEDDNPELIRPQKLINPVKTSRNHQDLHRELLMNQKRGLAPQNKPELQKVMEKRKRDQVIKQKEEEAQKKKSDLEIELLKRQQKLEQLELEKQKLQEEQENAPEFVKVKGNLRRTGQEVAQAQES
UniProt Q7Z309: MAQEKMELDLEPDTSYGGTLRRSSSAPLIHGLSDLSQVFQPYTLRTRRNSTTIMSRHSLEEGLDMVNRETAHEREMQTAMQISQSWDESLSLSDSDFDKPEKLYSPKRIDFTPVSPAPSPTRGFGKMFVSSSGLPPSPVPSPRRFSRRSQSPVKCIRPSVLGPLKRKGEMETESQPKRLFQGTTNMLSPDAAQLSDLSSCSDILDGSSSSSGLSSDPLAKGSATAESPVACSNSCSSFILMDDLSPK
UniProt Q9NVM1: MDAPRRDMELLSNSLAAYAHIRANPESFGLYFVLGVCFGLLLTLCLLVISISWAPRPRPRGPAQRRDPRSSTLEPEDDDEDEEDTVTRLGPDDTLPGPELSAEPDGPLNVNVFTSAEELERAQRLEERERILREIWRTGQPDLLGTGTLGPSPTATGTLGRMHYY

Experiments:
Assay in all cases: log2 fold change, soluble protein after heating vs DMSO (PISA); higher = thermal stabilisation; K562 cells, 10 uM, 30 min; active = over 0.2 and 3.5 SD of the protein, either way, in both replicates (recomputed)
[1] = compound: COC1=CC=C(C=C1)CN2C=CC3=C2C=C(C=C3)C(=O)NO
How it was run: (§1)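 Soluble protein was quantified by TMTpro 16plex LC-MS/MS after channel sums were equalised. It was obtained as the supernatant after 21,000xg for 90 min from pooled aliquots of K562 cells (2×10^6 cells/mL, 10 μM compound, 30 min) heated for 3 min across 48°C-58°C and extracted in PBS with 0.5% NP-40 at 4°C. Thermal stability values are relative to control samples and come from duplicates. They are given as log2 fold changes.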

idasanutlin = compound: COc1cc(C(=O)O)ccc1NC(=O)[C@@H]1N[C@@H](CC(C)(C)C)[C@](C#N)(c2ccc(Cl)cc2F)[C@H]1c1cccc(Cl)c1F [idasanutlin]
How it was run: as §1

[2] = compound: COc1cc2nc(-c3cc(F)ccc3O)nc(N[C@@H]3CNC[C@H]3C(C)(C)O)c2cc1OC
How it was run: as §1

lapatinib = compound: CS(=O)(=O)CCNCc1ccc(-c2ccc3ncnc(Nc4ccc(OCc5cccc(F)c5)c(Cl)c4)c3c2)o1 [lapatinib]
How it was run: as §1

pictilisib = compound: CS(=O)(=O)N1CCN(Cc2cc3nc(-c4cccc5[nH]ncc45)nc(N4CCOCC4)c3s2)CC1 [pictilisib]
How it was run: as §1

alisertib = compound: COc1cc(Nc2ncc3c(n2)-c2ccc(Cl)cc2C(c2c(F)cccc2OC)=NC3)ccc1C(=O)O [alisertib]
How it was run: as §1

[3] = compound: COc1cccc2cc(-c3nc([C@H]4CC[C@H](C(=O)O)CC4)n4ncnc(N)c34)[nH]c12
How it was run: as §1

filanesib = compound: CON(C)C(=O)N1N=C(c2cc(F)ccc2F)S[C@@]1(CCCN)c1ccccc1 [filanesib]
How it was run: as §1

gefitinib = compound: COc1cc2ncnc(Nc3ccc(F)c(Cl)c3)c2cc1OCCCN1CCOCC1 [gefitinib]
How it was run: as §1

zotarolimus = compound: CO[C@H]1C[C@@H]2CC[C@@H](C)[C@@](O)(O2)C(=O)C(=O)N2CCCC[C@H]2C(=O)O[C@H]([C@H](C)C[C@@H]2CC[C@H](n3cnnn3)[C@H](OC)C2)CC(=O)[C@H](C)/C=C(\C)[C@@H](O)[C@@H](OC)C(=O)[C@H](C)C[C@H](C)/C=C/C=C/C=C/1C [zotarolimus]
How it was run: as §1

FAM171A1 (UniProt Q5VUB5)
log2 fold change [1]: inactive: -0.127
log2 fold change (idasanutlin): inactive: -0.054
log2 fold change [2]: inactive: 0.066
log2 fold change (lapatinib): inactive: -0.078
log2 fold change (pictilisib): inactive: -0.009

FAM114A1 (UniProt Q8IWE2)
log2 fold change [1]: inactive: 0.002
log2 fold change (alisertib): inactive: 1.38
log2 fold change [3]: inactive: 0.03
log2 fold change (pictilisib): inactive: 0.009

EPS8L2 isoform 3 (UniProt Q9H6S3)
log2 fold change (filanesib): inactive: -0.023

EXO5 (UniProt Q9H790)
log2 fold change (filanesib): inactive: -0.03

ETF1 isoform 2 (UniProt P62495)
log2 fold change (idasanutlin): inactive: -0.126
log2 fold change [2]: inactive: 0.145
log2 fold change (lapatinib): inactive: -0.25
log2 fold change (pictilisib): inactive: 0.005

F13A1 (UniProt P00488)
log2 fold change (alisertib): inactive: 0.049
log2 fold change (gefitinib): inactive: 0.257
log2 fold change [3]: inactive: 0.099

FAM102B (UniProt Q5T8I3)
log2 fold change [2]: inactive: 0.182
log2 fold change (lapatinib): inactive: 0.154

EPS8L1 (UniProt Q8TE68)
log2 fold change (zotarolimus): inactive: 0.165

FAM135A (UniProt Q9P2D6)
log2 fold change (filanesib): inactive: 0.13
log2 fold change (gefitinib): inactive: 0.052

EYA3 (UniProt Q99504)
log2 fold change (zotarolimus): inactive: 0.054
log2 fold change (idasanutlin): inactive: 0.073
log2 fold change (alisertib): inactive: 0.26
log2 fold change [3]: inactive: -0.025
log2 fold change (pictilisib): inactive: 0.169

ESF1 (UniProt Q9H501)
log2 fold change (filanesib): inactive: 0.159
log2 fold change (pictilisib): inactive: -0.044

FAM126A (UniProt Q9BYI3)
log2 fold change (idasanutlin): inactive: 0.113
log2 fold change (alisertib): inactive: -0.198
log2 fold change [3]: inactive: -0.104

EXOG (UniProt Q9Y2C4)
log2 fold change (zotarolimus): inactive: -0.008
log2 fold change (idasanutlin): inactive: 0.015
log2 fold change (alisertib): inactive: -0.2
log2 fold change [2]: inactive: -0.103
log2 fold change [3]: inactive: 0.16
log2 fold change (lapatinib): inactive: 0.014
log2 fold change (pictilisib): inactive: -0.008

FAM160B2 (UniProt Q86V87)
log2 fold change (zotarolimus): inactive: 0.08
log2 fold change (alisertib): inactive: -0.034
log2 fold change [3]: inactive: -0.231
log2 fold change (pictilisib): inactive: -0.099

FAM110A (UniProt Q9BQ89)
log2 fold change (pictilisib): inactive: 0.064

FAM120B (UniProt Q96EK7)
log2 fold change (idasanutlin): inactive: 0.086
log2 fold change (pictilisib): inactive: -0.231

FABP3 (UniProt P05413)
log2 fold change (idasanutlin): inactive: 0.078

FAAP20 isoform 2 (UniProt Q6NZ36)
log2 fold change (alisertib): inactive: -0.068
log2 fold change [3]: inactive: 0.045
log2 fold change (pictilisib): inactive: 0.119

EVI5 isoform 2 (UniProt O60447)
log2 fold change (zotarolimus): inactive: -0.093
log2 fold change (idasanutlin): inactive: 0.149
log2 fold change [2]: inactive: 0.052
log2 fold change (lapatinib): inactive: -0.119
log2 fold change (pictilisib): inactive: -0.138

ERMARD (UniProt Q5T6L9)
log2 fold change (zotarolimus): inactive: 0.098
log2 fold change (alisertib): inactive: -0.558
log2 fold change [3]: inactive: 0.281

FAM107B isoform 2 (UniProt Q9H098)
log2 fold change (pictilisib): inactive: 0.153

EWSR1 (UniProt H7BY36)
log2 fold change (zotarolimus): inactive: -0.106
log2 fold change (idasanutlin): inactive: 0.022
log2 fold change (alisertib): inactive: -0.252
log2 fold change [2]: inactive: 0.028
log2 fold change (gefitinib): inactive: -0.008
log2 fold change [3]: inactive: -0.062
log2 fold change (lapatinib): inactive: 0.094

FADS2 (UniProt O95864)
log2 fold change (pictilisib): inactive: 0.106

FAM122B isoform 2 (UniProt Q7Z309)
log2 fold change (zotarolimus): inactive: 0.02
log2 fold change (alisertib): inactive: -0.112
log2 fold change [3]: inactive: 0.123

EVA1B (UniProt Q9NVM1)
log2 fold change (alisertib): inactive: -0.492
log2 fold change [3]: inactive: 0.206
